Measured values from patent publication US7632811B2 (Societe de Conseils de Recherches et D'Applications …, priority 1995, dated 2009).

Key:
[1] = general procedure: Boc solid-phase peptide synthesis; 4-Methylbenzhydrylamine (MBHA) resin (Peninsula), 0.93 mmol/g; conditions: whole synthesis, analytical HPLC
[2] = general procedure: Boc solid-phase peptide synthesis; MBHA; conditions: whole synthesis, analytical HPLC

Substance	final HPLC purity [1]	final HPLC purity [2]
[Cha^7,11]hPTH(1-34)NH2	>98%	–
[Glu^22,25, Leu^23,28, Lys^26,30, Aib^29, Ahc^31]hPTH(1-34)NH2	–	>99%
[Aib^34]hPTH(1-34)NH2	–	>99%
[Cha^22, Leu^23, 28, 31, Glu^25, Lys^26,30, Ahc^27, Aib^29]hPTHrP(1-34)NH2	>99%	–
